# Patent publication US20060024658A1, “Composition and methods for evaluating an organism's response to alcohol or stimulants” (priority 1998, published 2006)
# At least one structure is not confirmed: it was looked up by name or label, or the drawing left a doubt.
# System: SH-SY5Y cells
# Assay: Effect of dexamethasone and db-cAMP on expression of DBH, NET, DLK and MCP-1
# Format: cell-based, human
# Details: 100 nM, 3 days treatment; data not shown
# Description: Previous studies have shown that neuroblastoma cells derived from the neural crest could differentiate either towards a more neuronal phenotype in the presence of retinoic acid, or a chromaffin-like phenotype in the presence of glucocorticoids or dibutyryl-cyclic AMP (db-cAMP). […] Therefore, we tested the effect of dexamethasone and db-cAMP on the expression of our 4 candidate genes.
smiles,measurement,value
C[C@@H]1C[C@H]2[C@@H]3CCC4=CC(=O)C=C[C@]4(C)[C@@]3(F)[C@@H](O)C[C@]2(C)[C@@]1(O)C(=O)CO [dexamethasone],"DBH, NET and DLK mRNA levels",minimal effect
same,MCP-1 gene expression,stimulated MCP-1 gene expression
